# Source: the supplement of paper PMC8426693
# The list shows a part of the results. Repeats are few or missing, and single values can be far off.
# Experiments:
# Settings in all cases: RNA concentration 10 µM; fragment concentration 200 µM; 293 K
# SARS-CoV-2 5_SL7 RNA = experiment: waterLOGSY factor (bound vs free ligand) (ratio); higher = stronger binding
# SARS-CoV-2 3'-UTR RNA = experiment: T2 signal reduction relative to ligand without RNA (fraction); higher = stronger binding
# SARS-CoV-2 3_SL1+2 RNA = experiment: as above
# SARS-CoV-2 3_SL3base RNA = experiment: as above
# SARS-CoV-2 3_s2m RNA = experiment: as above
# SARS-CoV-2 5'-UTR RNA = experiment: as above
# SARS-CoV-2 5_SL4 RNA = experiment: as above
# SARS-CoV-2 5_SL5 RNA = experiment: as above
# [1] = tested on: SARS-CoV-2 frameshift pseudoknot (PK) RNA; experiment: waterLOGSY factor (bound vs free ligand) (ratio); higher = stronger binding
# SARS-CoV-2 3_SL2 RNA = experiment: T2 signal reduction relative to ligand without RNA (fraction); higher = stronger binding
# SARS-CoV-2 5_SL1 RNA = experiment: as above
# SARS-CoV-2 5_SL5b+c RNA = experiment: as above
# SARS-CoV-2 5_SL6 RNA [2] = experiment: waterLOGSY factor (bound vs free ligand) (ratio); higher = stronger binding
# SARS-CoV-2 5_SL8 RNA = experiment: as above
# SARS-CoV-2 5_SL6 RNA [3] = experiment: T2 signal reduction relative to ligand without RNA (fraction); higher = stronger binding
# SARS-CoV-2 3_SL1 RNA = experiment: as above
smiles,measurement,setting,value
NC(=O)c1cc(N2CCCC2)ccn1,waterLOGSY factor,SARS-CoV-2 5_SL7 RNA,0.85
same,T2 signal reduction,SARS-CoV-2 3'-UTR RNA,0.58
same,T2 signal reduction,SARS-CoV-2 3_SL1+2 RNA,0.41
same,T2 signal reduction,SARS-CoV-2 3_SL3base RNA,0.68
same,T2 signal reduction,SARS-CoV-2 3_s2m RNA,0.46
same,T2 signal reduction,SARS-CoV-2 5'-UTR RNA,0.93
same,T2 signal reduction,SARS-CoV-2 5_SL4 RNA,0.49
same,T2 signal reduction,SARS-CoV-2 5_SL5 RNA,0.49
CC(=O)c1ccc(NC(=O)CN2CCCC2)cc1,waterLOGSY factor,SARS-CoV-2 5_SL7 RNA,0.828
same,waterLOGSY factor,[1],1.5
same,T2 signal reduction,SARS-CoV-2 3'-UTR RNA,0.52
same,T2 signal reduction,SARS-CoV-2 3_SL1+2 RNA,0.34
same,T2 signal reduction,SARS-CoV-2 3_SL2 RNA,0.22
same,T2 signal reduction,SARS-CoV-2 3_SL3base RNA,0.63
same,T2 signal reduction,SARS-CoV-2 3_s2m RNA,0.39
same,T2 signal reduction,SARS-CoV-2 5'-UTR RNA,0.45
same,T2 signal reduction,SARS-CoV-2 5_SL1 RNA,0.26
same,T2 signal reduction,SARS-CoV-2 5_SL5 RNA,0.44
Nc1nccc(-c2ccc(Cl)cc2)n1,waterLOGSY factor,[1],3.92
same,T2 signal reduction,SARS-CoV-2 3'-UTR RNA,0.67
same,T2 signal reduction,SARS-CoV-2 3_SL2 RNA,0.21
same,T2 signal reduction,SARS-CoV-2 3_SL3base RNA,0.83
same,T2 signal reduction,SARS-CoV-2 5'-UTR RNA,0.9
same,T2 signal reduction,SARS-CoV-2 5_SL5 RNA,1.02
same,T2 signal reduction,SARS-CoV-2 5_SL5b+c RNA,0.23
CNc1nccc(OC)n1,T2 signal reduction,SARS-CoV-2 3'-UTR RNA,0.54
CC(=O)Nc1ccc2[nH]c(=O)[nH]c2c1,T2 signal reduction,SARS-CoV-2 3'-UTR RNA,0.36
NC(=O)c1ccnc(NC2CC=CC2)c1,T2 signal reduction,SARS-CoV-2 3'-UTR RNA,0.14
same,T2 signal reduction,SARS-CoV-2 3_SL1+2 RNA,0.34
same,T2 signal reduction,SARS-CoV-2 5_SL4 RNA,0.26
same,T2 signal reduction,SARS-CoV-2 5_SL5 RNA,0.22
Cc1cc2ncn(CC(N)=O)c2cc1C,T2 signal reduction,SARS-CoV-2 3'-UTR RNA,0.21
COc1ccc(C(=O)Nc2ccccc2F)cc1,T2 signal reduction,SARS-CoV-2 3'-UTR RNA,0.27
Cc1nccc(N2CCC(N)CC2)n1,waterLOGSY factor,[1],1.88
same,T2 signal reduction,SARS-CoV-2 3'-UTR RNA,0.1
same,T2 signal reduction,SARS-CoV-2 3_SL1+2 RNA,0.45
same,T2 signal reduction,SARS-CoV-2 3_SL2 RNA,0.24
same,T2 signal reduction,SARS-CoV-2 3_SL3base RNA,0.56
same,T2 signal reduction,SARS-CoV-2 3_s2m RNA,0.15
same,T2 signal reduction,SARS-CoV-2 5'-UTR RNA,0.44
same,T2 signal reduction,SARS-CoV-2 5_SL5b+c RNA,0.61
CNC(=O)c1ccccc1NC(=O)c1ccco1,waterLOGSY factor,SARS-CoV-2 5_SL6 RNA [2],0.619
same,waterLOGSY factor,SARS-CoV-2 5_SL8 RNA,1.1
same,T2 signal reduction,SARS-CoV-2 3'-UTR RNA,0.59
same,T2 signal reduction,SARS-CoV-2 3_SL3base RNA,0.72
same,T2 signal reduction,SARS-CoV-2 5'-UTR RNA,0.75
same,T2 signal reduction,SARS-CoV-2 5_SL5 RNA,0.75
same,T2 signal reduction,SARS-CoV-2 5_SL6 RNA [3],0.35
CC(=O)Nc1ccncc1C,T2 signal reduction,SARS-CoV-2 3'-UTR RNA,0.01
Cc1cc(C(=O)Nc2ccc3[nH]ccc3c2)no1,T2 signal reduction,SARS-CoV-2 3'-UTR RNA,0.31
same,T2 signal reduction,SARS-CoV-2 3_SL3base RNA,0.31
CCc1nc(-c2ccc(Cl)cc2)no1,T2 signal reduction,SARS-CoV-2 3'-UTR RNA,0.48
Cc1sc2ncnc(N(C)C)c2c1C,T2 signal reduction,SARS-CoV-2 3'-UTR RNA,0.64
same,T2 signal reduction,SARS-CoV-2 3_SL3base RNA,0.43
same,T2 signal reduction,SARS-CoV-2 5'-UTR RNA,0.81
same,T2 signal reduction,SARS-CoV-2 5_SL5 RNA,0.9
c1cnc(N2CCC3(CCOC3)C2)cn1 (configuration not stated),T2 signal reduction,SARS-CoV-2 3'-UTR RNA,0.24
COc1ccc2sc(N)nc2c1,T2 signal reduction,SARS-CoV-2 3'-UTR RNA,0.49
same,T2 signal reduction,SARS-CoV-2 3_SL3base RNA,0.58
same,T2 signal reduction,SARS-CoV-2 5'-UTR RNA,0.81
same,T2 signal reduction,SARS-CoV-2 5_SL5 RNA,0.62
CCOC(=O)c1cc(-c2ccc(C)cc2)no1,T2 signal reduction,SARS-CoV-2 3'-UTR RNA,0.65
CCNC1CCN(c2ccncc2)CC1,waterLOGSY factor,SARS-CoV-2 5_SL7 RNA,1.34
same,waterLOGSY factor,[1],2.71
same,T2 signal reduction,SARS-CoV-2 3'-UTR RNA,0.4
same,T2 signal reduction,SARS-CoV-2 3_SL1 RNA,0.41
same,T2 signal reduction,SARS-CoV-2 3_SL1+2 RNA,0.67
same,T2 signal reduction,SARS-CoV-2 3_SL2 RNA,0.31
same,T2 signal reduction,SARS-CoV-2 3_SL3base RNA,0.63
same,T2 signal reduction,SARS-CoV-2 3_s2m RNA,0.48
same,T2 signal reduction,SARS-CoV-2 5_SL1 RNA,0.35
same,T2 signal reduction,SARS-CoV-2 5_SL5b+c RNA,0.59

# As a working copy, part of the list above:
smiles,measurement,setting,value
c1cnc(N2CCC3(CCOC3)C2)cn1 (configuration not stated),T2 signal reduction,SARS-CoV-2 3'-UTR RNA,0.24
COc1ccc2sc(N)nc2c1,T2 signal reduction,SARS-CoV-2 3'-UTR RNA,0.49
same,T2 signal reduction,SARS-CoV-2 3_SL3base RNA,0.58
